The test system of this data set is insulin. In words: colorimetric aptamer capture assay (hemin/TMB peroxidase read-out, 450 nm) on MNP-coupled DNA nanotubes. Particulars: hemin, 100 nM insulin, 2 uM aptamer, signal linear 1.56-100 uIU/ml, LoD 0.39 uIU/ml; Binding buffer 20 mM Tris-HCl, 140 mM NaCl, 5 mM KCl, 1 mM CaCl2, 1 mM MgCl2, pH 7.4, room temperature, 40-60 min; then hemin in DMSO 1 h and TMB-H2O2; commercial protein; label: 5' biotin; folded or branched DNA.

For at least one entry, the source does not settle the construct or the ends of the probe. At least one verdict rests on a figure or table, not on a statement of the authors.

The record followed here is publication PMC5882713, “Sensitive colorimetric assay using insulin G-quadruplex aptamer arrays on DNA nanotubes coupled with magnetic nanoparticles”.

Regarding “GGTGGTGGGGGGGGTTGGTAGGGTGTCTTC [G-quadruplex insulin aptamer (G-rich aptamer)]”, the binding result is “binds”.
